# Assay results: PubChem BioAssay AID504834 (National Center for Advancing Translational Sciences (NCATS), 2011)
# The campaign covered roughly 320,000 compounds. About 22,000 (6.9%) were called active. Inconclusive results, whose numbers are uncertain, are shown with a selection of clear calls. Calls come from the whole dose curve; as a rule, active = well fitted inhibition curve with a large enough effect; inconclusive = small, poorly fitted or top-dose-only effect, or another doubt; inactive = no such curve, though single readings can be large or run the other way. Potencies beside an inconclusive call are fits to weak or partial responses and may not hold up.
# Assay: Primary qHTS for delayed death inhibitors of the malarial parasite plastid, 96 hour incubation
# Conditions: P. falciparum luciferase reporter growth; series mostly up to 28.7 µM; activity change, negative = inhibition: at the top concentration
# Summary of the method: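 Luminescence readout: decreased luciferase signal marks inhibited growth of reporter-expressing P. falciparum in infected red cells (2% hematocrit, 0.05% parasitemia final), exposed to compound two generations (96 h, 37 C, 5% CO2).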
# % is set by controls: 0 for no effect and ±100 for the full control effect; potency is the fitted concentration of half-maximal effect.
Compound,Potency,"activity change, negative = inhibition"
Cc1ccc(N2C(=O)N3[C@H](c4ccc(Cl)cc4)[C@@H]4C(=O)N(C5CCCCC5)C(=O)[C@@H]4[C@]3(Cc3ccccc3)C2=O)cc1,active: 3.7 µM,
CC(CC(=O)Nc1cc(S(=O)(=O)N2CCOCC2)ccc1OCC(F)(F)F)c1ccccc1 (stereo not given),"inconclusive: 5.22 µM [inhibitor, partial curve]",
COc1ccc(N(C(=O)c2snc(C(N)=O)c2N)C(C(=O)NC2CCCC2)c2ccco2)c(OC)c1 (stereo not given),"inconclusive: 9.28 µM [inhibitor, single point]",
CC(C)(C)C1=CC(=Nc2ccccc2N)C=C(C(C)(C)C)C1=O,,inactive: 2.68%
CC(C)N(C(=O)Cn1c(SCC(=O)NC2CC2)nc2ccccc21)C(C)C,"inconclusive: 0.165 µM [inhibitor, full curve, poor fit]",
CC(C)CN(C(=O)COC(=O)c1cccc2ccccc12)c1c(N)n(Cc2ccccc2)c(=O)[nH]c1=O,,inactive: 0.969%
O=C(NCc1cccnc1)C1CC(c2cccc(Br)c2)=NO1 (stereo not given),,inactive: -21%
O=C(C#Cc1ccccc1)Nc1ccccc1F,active: 9.28 µM,
CN(C(=O)Nc1ccccc1)C1CCCCC1,,inactive: 40.1%
CCOC(=O)c1sc2nc(CC(=O)OC)nc(N3CCN(c4ccc(OC)cc4)CC3)c2c1C,"inconclusive: 2.94 µM [inhibitor, partial curve, poor fit]",
COc1ccc(-c2nc(CS(=O)CC(=O)NCc3ccc4c(c3)OCO4)c(C)o2)cc1 (stereo not given),active: 4.65 µM,
CCCC(NC(=O)COc1cc2c(c3oc(=O)c(C)c(C)c13)CCC(C)(C)O2)C(=O)O (stereo not given),"inconclusive: 8.28 µM [inhibitor, partial curve]",
NC1=NC[C@H](Cc2ccc(O)cc2)N1CCC12CC3CC(CC(C3)C1)C2,active: 1.85 µM,
O=[N+]([O-])c1cc(S(=O)(=O)/N=C(/c2ccccc2)N2CCOCC2)ccc1Cl,,inactive: 0%
C=CCSc1nnc(NC(=O)c2c(CC)noc2C)s1,,inactive: 3.7%
O=[N+]([O-])c1ccc(-c2nc(-c3cccs3)c(-c3cccs3)[nH]2)cc1,"inconclusive: 9.28 µM [inhibitor, single point]",
COc1ccc(CNCCc2cccc(F)c2)c2ccccc12,active: 13.1 µM,
COC(=O)c1sccc1NC(=O)c1c(C)noc1C,"inconclusive: 7.38 µM [inhibitor, partial curve]",
CCOc1ccc(C(=O)NC2C(=O)N3C(C(=O)O)=C(COC(C)=O)CSC23)cc1OCC (stereo not given),,inactive: 17.9%
CN(c1ccccc1)S(=O)(=O)c1cccc(NC(=O)Nc2ccc(Cl)cc2C#N)c1,"inconclusive: 14.7 µM [inhibitor, single point]",
Cc1ccccc1CN1CCc2c(OCC(=O)N3CCCCC3)cccc2C1=O,"inconclusive: 13.1 µM [inhibitor, single point]",
Cc1cc(=O)oc2c(C)c3occc3cc12,,inactive: 64.6%
Cc1nn(-c2ccccc2)c2c1c(C)c(CCC(=O)N1CCOCC1)c(=O)n2C,"inconclusive: 13.1 µM [inhibitor, single point]",

Compound,Potency,"activity change, negative = inhibition"
CCOc1ccc(NC(=O)c2nc(SCC)ncc2Cl)cc1,"inconclusive: 5.86 µM [inhibitor, partial curve]",
O=C(CSc1ccc(-c2ccc(F)cc2)nn1)NC1CCCCC1,,inactive: 33.9%
COc1ccc(OC)c(NC(=O)CCCN2C(=S)NC(C)(C)CC2C)c1 (stereo not given),"inconclusive: 7.38 µM [inhibitor, partial curve, poor fit]",
CC(C)Sc1nc2ccccc2c(=O)[nH]1,,inactive: -9.85%
CCOC(=O)N1CCN(CC(O)COCC2=CCC3CC2C3(C)C)CC1 (stereo not given),"inconclusive: 8.28 µM [inhibitor, partial curve, poor fit]",
CCN(CC(=O)Nc1c(F)cccc1F)C(=O)Cc1c(C)nc2ccccc2c1C,"inconclusive: 5.22 µM [inhibitor, partial curve]",
Cc1ccccc1CN1CCN(CC(=O)NCc2ccccn2)C1=O,"inconclusive: 4.65 µM [inhibitor, partial curve, poor fit]",
COC(=O)C(O)(c1ccc(N(C)C(=O)OC(C)C)cc1)C(F)(F)F (stereo not given),,inactive: 6.37%
CC1=C(C(=O)Nc2ccc(C(=O)N3CCN(c4cccc(Cl)c4)CC3)cc2)SCCO1,"inconclusive: 11.7 µM [inhibitor, single point]",
Cc1ccc(NC(=O)CN(C)C(=O)COC(=O)C(C)(C)Oc2ccc(Cl)cc2)cc1,,inactive: 47.3%
O=C(c1cccs1)N1CCC(c2nc(-c3ccc(S(=O)(=O)N4CCOCC4)cc3)no2)CC1,"inconclusive: 5.22 µM [inhibitor, partial curve, poor fit]",
Cc1ccc(C)c(NC(=O)CN(C)C(=O)c2ccc3[nH]c4c(c3c2)CC(C)CC4)c1 (stereo not given),"inconclusive: 13.1 µM [inhibitor, partial curve]",
COc1cccc(C(=O)NCC(=O)NCc2cc(=O)n(C)c(=O)n2C)c1OC,,inactive: 0.191%
O=c1[nH]c2ccccc2n1Cc1ccc(F)cc1,"inconclusive: 0.465 µM [inhibitor, partial curve]",
COc1ccc(/C(C)=N/OCC(=O)N2CC3(C)CC2CC(C)(C)C3)cc1 (stereo not given),"inconclusive: 18.5 µM [inhibitor, single point]",
O=C(CCCSc1nnnn1-c1cccc2ccccc12)c1ccc(F)cc1,"inconclusive: 8.28 µM [inhibitor, partial curve]",
Cc1cc(C)c(S(C)(=O)=O)c(=O)[nH]1,"inconclusive: 18.5 µM [inhibitor, single point]",
COc1cc(OC)c(NC(=O)c2csc(C)c2)cc1Cl,,inactive: 12.9%
CN(Cc1ccco1)S(=O)(=O)c1nnc(NC(=O)c2ccccc2)s1,"inconclusive: 4.15 µM [inhibitor, full curve, poor fit]",
COc1ccc(C(=O)N2CCc3cc(OC)c(OC)cc3C2c2ccc(OC)c(OC)c2)cc1OC (stereo not given),active: 6.57 µM,
CCn1ccnc1CN(C)Cc1cn(-c2cccc(C)c2)nc1-c1cccc(F)c1,"inconclusive: 18.5 µM [inhibitor, single point]",
COc1ccccc1NC(=O)Cn1cnc2c(oc3nc4c(cc32)CCCC4)c1=O,"inconclusive: 9.28 µM [inhibitor, partial curve]",

# Another view of some results above.
Compound | Potency | activity change, negative = inhibition
Cc1ccccc1CN1CCc2c(OCC(=O)N3CCCCC3)cccc2C1=O | inconclusive: 13.1 µM [inhibitor, single point] | 
Cc1cc(=O)oc2c(C)c3occc3cc12 |  | inactive: 64.6%
Cc1nn(-c2ccccc2)c2c1c(C)c(CCC(=O)N1CCOCC1)c(=O)n2C | inconclusive: 13.1 µM [inhibitor, single point] | 
